# Experimental data from article PMC5996148.
# “And” between values parts separate entries of the source, which are not always exact repeats. Equal entries are not always repeated. This is one part of the list. For some assays here: The exact form of the protein is not confirmed.
# What was measured:
# Assay in all cases: protein microarray (ProtoArray v5.0), streptavidin-Alexa Fluor 647
# Conditions in all cases: 3'-biotin; 20 mM Tris (pH 7.5), 5 mM MgCl2, 100 mM KCl, 0.1% Tween-20, A/T-rich and random oligonucleotide blockers; temperature not stated; high values mean tight binding
# RABEP2 (human) = tested on: RABEP2 (human)
# RABEPK (human) = tested on: RABEPK (human)
# RABL2B (human) = tested on: RABL2B (human)
# RABL5 (human) = tested on: RABL5 (human)
# RAD51AP1 = molecular target: T1, RAD51AP1 (UniProt Q96B01)
# T1 sequence: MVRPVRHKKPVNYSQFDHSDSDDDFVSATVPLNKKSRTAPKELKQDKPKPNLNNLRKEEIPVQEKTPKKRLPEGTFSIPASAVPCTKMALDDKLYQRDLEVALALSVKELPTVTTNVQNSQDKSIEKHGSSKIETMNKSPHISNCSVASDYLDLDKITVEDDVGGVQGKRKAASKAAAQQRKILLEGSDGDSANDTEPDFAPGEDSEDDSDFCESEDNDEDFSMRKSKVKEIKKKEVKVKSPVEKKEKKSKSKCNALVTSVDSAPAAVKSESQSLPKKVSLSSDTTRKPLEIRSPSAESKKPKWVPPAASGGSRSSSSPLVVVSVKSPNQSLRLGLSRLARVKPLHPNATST
# RANGAP1 (human) = tested on: RANGAP1 (human)
# RAP1GDS1 (human) = tested on: RAP1GDS1 (human)
# RASA1 = molecular target: T2, RASA1 (UniProt P20936)
# T2 sequence: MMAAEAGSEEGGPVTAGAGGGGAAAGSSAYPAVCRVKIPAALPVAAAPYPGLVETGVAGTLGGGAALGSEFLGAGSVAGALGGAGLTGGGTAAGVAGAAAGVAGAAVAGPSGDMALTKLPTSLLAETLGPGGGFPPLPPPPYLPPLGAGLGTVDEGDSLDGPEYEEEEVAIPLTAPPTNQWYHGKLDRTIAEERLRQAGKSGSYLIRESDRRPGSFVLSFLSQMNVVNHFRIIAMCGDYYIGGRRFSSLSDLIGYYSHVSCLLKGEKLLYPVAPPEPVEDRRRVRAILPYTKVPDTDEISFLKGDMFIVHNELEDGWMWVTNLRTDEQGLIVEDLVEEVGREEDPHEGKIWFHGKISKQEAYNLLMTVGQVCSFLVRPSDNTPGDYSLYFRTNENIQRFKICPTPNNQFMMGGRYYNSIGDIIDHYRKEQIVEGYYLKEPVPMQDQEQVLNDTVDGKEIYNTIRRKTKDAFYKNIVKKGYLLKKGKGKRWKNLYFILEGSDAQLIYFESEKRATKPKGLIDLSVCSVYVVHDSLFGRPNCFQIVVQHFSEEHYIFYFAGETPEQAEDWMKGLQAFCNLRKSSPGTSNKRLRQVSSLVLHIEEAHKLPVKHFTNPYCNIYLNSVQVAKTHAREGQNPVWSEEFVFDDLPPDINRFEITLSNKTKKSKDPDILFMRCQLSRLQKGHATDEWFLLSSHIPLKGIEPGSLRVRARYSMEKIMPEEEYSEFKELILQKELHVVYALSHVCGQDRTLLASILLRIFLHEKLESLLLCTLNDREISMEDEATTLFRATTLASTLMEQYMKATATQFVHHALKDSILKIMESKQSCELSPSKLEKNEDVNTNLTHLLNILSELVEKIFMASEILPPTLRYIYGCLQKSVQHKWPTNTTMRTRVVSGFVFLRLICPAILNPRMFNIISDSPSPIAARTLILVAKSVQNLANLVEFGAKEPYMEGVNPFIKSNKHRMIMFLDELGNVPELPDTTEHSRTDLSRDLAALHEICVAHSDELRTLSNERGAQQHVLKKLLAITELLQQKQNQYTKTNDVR
# RASGRP3 (human) = tested on: RASGRP3 (human)
# RBED1 = molecular target: T3, RBED1 (UniProt Q96FG2)
# T3 sequence: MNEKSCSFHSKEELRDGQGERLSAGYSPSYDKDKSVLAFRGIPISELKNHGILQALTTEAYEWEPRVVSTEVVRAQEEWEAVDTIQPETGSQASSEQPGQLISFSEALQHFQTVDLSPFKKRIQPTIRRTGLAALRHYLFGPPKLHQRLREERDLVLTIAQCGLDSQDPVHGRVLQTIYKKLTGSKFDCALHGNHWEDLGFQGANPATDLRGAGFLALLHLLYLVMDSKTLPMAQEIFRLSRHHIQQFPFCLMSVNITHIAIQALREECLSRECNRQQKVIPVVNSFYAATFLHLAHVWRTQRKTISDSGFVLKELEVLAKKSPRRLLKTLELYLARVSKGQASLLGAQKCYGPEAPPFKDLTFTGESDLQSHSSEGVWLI
# RBM33 (human) = tested on: RBM33 (human)
# RBM34 = molecular target: T4, RBM34 (UniProt P42696)
# T4 sequence: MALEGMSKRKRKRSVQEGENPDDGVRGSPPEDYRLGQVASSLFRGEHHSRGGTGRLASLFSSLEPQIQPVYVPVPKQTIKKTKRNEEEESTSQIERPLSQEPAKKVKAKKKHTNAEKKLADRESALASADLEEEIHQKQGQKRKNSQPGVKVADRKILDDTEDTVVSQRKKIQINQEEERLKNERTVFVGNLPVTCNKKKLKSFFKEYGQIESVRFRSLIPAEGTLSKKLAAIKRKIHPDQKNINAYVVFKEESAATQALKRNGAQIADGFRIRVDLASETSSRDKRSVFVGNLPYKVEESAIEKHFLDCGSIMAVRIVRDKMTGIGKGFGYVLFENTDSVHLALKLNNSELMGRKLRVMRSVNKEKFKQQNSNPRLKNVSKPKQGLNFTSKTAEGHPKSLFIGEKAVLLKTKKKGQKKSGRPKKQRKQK
# RBM9 (human) = tested on: RBM9 (human)
# RCP9 (human) = tested on: RCP9 (human)
# RCSD1 (human) = tested on: RCSD1 (human)
# REEP6 (human) = tested on: REEP6 (human)
# RFC5 (human) = tested on: RFC5 (human)
# RFPL3 (human) = tested on: RFPL3 (human)
# RGS10 (human) = tested on: RGS10 (human)
# RHCG (human) = tested on: RHCG (human)
sequence,measurement,setting,value
GGGGACAGGGGTATGGGGAGGGG [G4-3 biotinylated (CtG)],binding signal,RABEP2 (human),-0.3 z-score
same,binding signal,RABEPK (human),-0.302 z-score
same,binding signal,RABL2B (human),-0.313 z-score
same,binding signal,RABL5 (human),-0.324 z-score and -0.333 z-score
same,binding signal,RAD51AP1,4.69 z-score
same,binding signal,RANGAP1 (human),-0.319 z-score
same,binding signal,RAP1GDS1 (human),-0.328 z-score and -0.344 z-score and -0.336 z-score
same,binding signal,RASA1,3.2 z-score
same,binding signal,RASGRP3 (human),-0.323 z-score
same,binding signal,RBED1,-0.315 z-score
same,binding signal,RBM33 (human),-0.319 z-score
same,binding signal,RBM34,3.52 z-score
same,binding signal,RBM9 (human),-0.322 z-score
same,binding signal,RCP9 (human),-0.33 z-score
same,binding signal,RCSD1 (human),-0.313 z-score
same,binding signal,REEP6 (human),-0.309 z-score
same,binding signal,RFC5 (human),-0.321 z-score
same,binding signal,RFPL3 (human),-0.326 z-score
same,binding signal,RGS10 (human),-0.322 z-score
same,binding signal,RHCG (human),-0.333 z-score
